Taken from: PubChem BioAssay AID493246 (Drosophila RNAi Screening Center, 2011)
Purpose: 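Genome-wide search for dsRNAs that reduce cell number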 (primary screen). System: Drosophila Kc and S2R+ cells. Reagents: long dsRNA against Drosophila genes. Measurement: 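Raw, unnormalised count of remaining cells in each well; per-plate z-scores of cell number underlie the calls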. Scale: Kc cell number and S2R+ cell number: higher = more cells remaining. Rule for the call: 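Counted as a hit if cell number falls by a z-score of at least 3 within its plate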.
The screen tested about 21,000 reagents; below is an unselected part of those with a known target gene and a result. Of all reagents, 429 (2%) are marked active. 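Values are raw and not normalised between plates; calls rest on per-plate z-scores that were not deposited.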 A number with no mark means an inactive call. Names joined by + are all predicted targets of the reagent. No sequences are given here. Not given: the amount of reagent, the time to read-out.

predicted target | amplicon | Kc cell number, rep 1 | Kc cell number, rep 2 | S2R+ cell number, rep 1 | S2R+ cell number, rep 2
acj6 (GeneID 47080) | DRSC20304 | 6.37e5 | – | 8.78e5 | –
CG2767 (GeneID 40946) | DRSC15451 | 1.56e6 | 1.70e6 | 1.14e6 | 1.23e6
CG14006 (GeneID 33802) | DRSC02338 | 1.44e6 | 1.38e6 | 1.11e6 | 1.25e6
CG7966 (GeneID 41610) | DRSC16356 | 1.55e6 | 1.65e6 | 1.36e6 | 1.44e6
fd19B (GeneID 33010) | DRSC20688 | 1.64e6 | 1.62e6 | 1.09e6 | 1.18e6
ppk9 (GeneID 37498) | DRSC04134 | 1.68e6 | 1.74e6 | 1.27e6 | 3.34e5
ppk9 (GeneID 37498) | DRSC04135 | 1.64e6 | 1.71e6 | 1.24e6 | 4.28e5
CG5273 (GeneID 31021) | DRSC18612 | 1.51e6 | 1.47e6 | 1.02e6 | 1.10e6
RecQ4 (GeneID 53438) | DRSC11265 | 1.68e6 | 1.68e6 | 1.03e6 | 1.08e6
Elys (GeneID 32971) | DRSC19571 | 1.51e6 | 1.59e6 | 9.58e5 | 1.07e6
Adgf-E (GeneID 36627) | DRSC05973 | 1.49e6 | 1.54e6 | 1.15e6 | 1.31e6
Fa2h (GeneID 35670) | DRSC06608 | 1.53e6 | 1.56e6 | 1.28e6 | 1.48e6
Fa2h (GeneID 35670) | DRSC06609 | 1.53e6 | 1.61e6 | 1.20e6 | 1.35e6
PAPLA1 (GeneID 34109) | DRSC03095 | 1.34e6 | 1.37e6 | 5.66e5 | 9.23e5
PAPLA1 (GeneID 34109) | DRSC03096 | 1.49e6 | 1.57e6 | 1.11e6 | 1.22e6
Ugt49B1 (GeneID 37420) | DRSC04461 | 1.46e6 | 1.53e6 | 1.34e6 | 2.99e5
sut3 (GeneID 44268) | DRSC07702 | 1.51e6 | 1.57e6 | 1.29e6 | 1.33e6
rdgA (GeneID 31826) | DRSC17863 | 1.59e6 | 1.61e6 | 1.13e6 | 1.24e6
rdgA (GeneID 31826) | DRSC18036 | 1.58e6 | 1.57e6 | 1.13e6 | 1.23e6
rdgA (GeneID 31826) | DRSC18827 | 6.40e5 | – | 9.62e5 | –
Rab14 (GeneID 34840) | DRSC03403 | 1.36e6 | 1.33e6 | 1.29e6 | 1.32e6
CG13544 (GeneID 37673) | DRSC04186 | 1.59e6 | 1.67e6 | 1.39e6 | 1.49e6
psd (GeneID 33830) | DRSC03131 | 1.58e6 | 1.42e6 | 1.12e6 | 1.26e6
CG9518 (GeneID 32416) | DRSC20194 | 1.46e6 | 1.45e6 | 1.08e6 | 1.18e6
capt (GeneID 45233) | DRSC00676 | 1.60e6 | 1.64e6 | 1.07e6 | 1.24e6
capt (GeneID 45233) | DRSC00806 | 1.49e6 | 1.55e6 | 1.03e6 | 1.18e6
CG11878 (GeneID 43050) | DRSC14422 | 1.70e6 | 1.79e6 | 1.05e6 | 1.15e6
mei-217 + mei-218 | DRSC20349 | 1.69e6 | 1.71e6 | 1.16e6 | 1.28e6
CG12155 (GeneID 31682) | DRSC17826 | 6.02e5 | – | 7.47e5 | –
CG15256 (GeneID 34911) | DRSC01940 | 1.51e6 | 1.56e6 | 1.24e6 | 1.42e6
TM4SF (GeneID 37786) | DRSC04661 | 1.39e6 | 1.48e6 | 1.02e6 | 8.94e5
sens (GeneID 45328) | DRSC09263 | 8.95e5 (active) | 7.37e5 | 4.55e5 | 6.48e5
TTLL4B (GeneID 33609) | DRSC00636 | 1.28e6 | 1.34e6 | 8.01e5 | 8.51e5
eIF3l (GeneID 39386) | DRSC10530 | 1.41e6 | 1.51e6 | 1.30e6 | 1.33e6

3 entries already listed, sorted by “S2R+ cell number, rep 2”, low to high.
predicted target | amplicon | Kc cell number, rep 1 | Kc cell number, rep 2 | S2R+ cell number, rep 1 | S2R+ cell number, rep 2
CG11878 (GeneID 43050) | DRSC14422 | 1.70e6 | 1.79e6 | 1.05e6 | 1.15e6
capt (GeneID 45233) | DRSC00806 | 1.49e6 | 1.55e6 | 1.03e6 | 1.18e6
capt (GeneID 45233) | DRSC00676 | 1.60e6 | 1.64e6 | 1.07e6 | 1.24e6

Continued:
predicted target | amplicon | Kc cell number, rep 1 | Kc cell number, rep 2 | S2R+ cell number, rep 1 | S2R+ cell number, rep 2
kuk (GeneID 42063) | DRSC15730 | 1.54e6 | 1.70e6 | 1.20e6 | 1.28e6
Cpr50Cb (GeneID 36525) | DRSC06975 | 1.57e6 | 1.63e6 | 1.25e6 | 1.39e6
trk (GeneID 34376) | DRSC03625 | 1.64e6 | 1.73e6 | 1.17e6 | 1.30e6
Ucp4B (GeneID 33833) | DRSC02665 | 1.51e6 | 1.35e6 | 1.16e6 | 1.27e6
CG32473 (GeneID 41636) | DRSC14352 | 1.46e6 | 1.48e6 | 1.06e6 | 1.20e6
CG32473 (GeneID 41636) | DRSC16446 | 1.69e6 | 1.61e6 | 1.30e6 | 1.42e6
REPTOR-BP (GeneID 34371) | DRSC02683 | 1.55e6 | 1.66e6 | 1.34e6 | 1.48e6
CG30466 (GeneID 246629) | DRSC05556 | 1.43e6 | 1.38e6 | 9.97e5 | 1.14e6
CG30103 (GeneID 36969) | DRSC06894 | 1.50e6 | 1.62e6 | 1.15e6 | 1.27e6
CG15537 (GeneID 43614) | DRSC15073 | 1.71e6 | 1.69e6 | 1.09e6 | 1.15e6
tay (GeneID 32547) | DRSC20142 | 5.43e5 | – | 8.84e5 | –
LSm3 (GeneID 42842) | DRSC15920 | 1.49e6 | 1.52e6 | 9.98e5 | 1.11e6
CG13933 (GeneID 38227) | DRSC08402 | 1.34e6 | 1.36e6 | 1.13e6 | 1.25e6
cnn (GeneID 36491) | DRSC05422 | 1.47e6 | 1.40e6 | 9.73e5 | 1.12e6
cnn (GeneID 36491) | DRSC07596 | 1.48e6 | 1.54e6 | 1.24e6 | 1.35e6
OS9 (GeneID 59167) | DRSC02700 | 1.57e6 | 1.65e6 | 1.30e6 | 2.95e5
Tim9a (GeneID 32294) | DRSC19753 | 1.57e6 | 1.49e6 | 1.12e6 | 1.22e6
CG42795 (GeneID 41252) | DRSC12772 | 1.72e6 | 1.85e6 | 1.11e6 | 1.44e6
CG42795 (GeneID 41252) | DRSC15533 | 1.45e6 | 1.43e6 | 1.16e6 | 1.26e6
r (GeneID 32640) | DRSC19813 | 1.48e6 | 1.45e6 | 1.08e6 | 1.14e6
r (GeneID 32640) | DRSC19814 | 1.43e6 | 1.47e6 | 1.03e6 | 1.08e6
Eglp1 (GeneID 37736) | DRSC04502 | 1.42e6 | 1.60e6 | 9.66e5 | 1.09e6
Hsp60D (GeneID 34763) | DRSC02543 | 1.61e6 | 1.81e6 | 1.12e6 | 1.12e6
Naa35 (GeneID 37866) | DRSC04447 | 1.25e6 | 1.35e6 | 1.00e6 | 1.11e6
CG9410 + CG15908 | DRSC04976 | 1.51e6 | 1.58e6 | 1.28e6 | 1.40e6
CG9410 + CG15908 | DRSC05001 | 1.63e6 | 1.70e6 | 1.41e6 | 1.51e6
